According to patent publication US20180094275A1 (AGRESEARCH, published 2018):

Columns and labels:
[1] = target: T1, BiFC nYFP-NINJA (Arabidopsis thaliana); assay: BiFC in Nicotiana benthamiana leaves
T1 construct: Expressed transiently in Nicotiana benthamiana leaves; also called pDESTnYFP-NINJA
T1 chain: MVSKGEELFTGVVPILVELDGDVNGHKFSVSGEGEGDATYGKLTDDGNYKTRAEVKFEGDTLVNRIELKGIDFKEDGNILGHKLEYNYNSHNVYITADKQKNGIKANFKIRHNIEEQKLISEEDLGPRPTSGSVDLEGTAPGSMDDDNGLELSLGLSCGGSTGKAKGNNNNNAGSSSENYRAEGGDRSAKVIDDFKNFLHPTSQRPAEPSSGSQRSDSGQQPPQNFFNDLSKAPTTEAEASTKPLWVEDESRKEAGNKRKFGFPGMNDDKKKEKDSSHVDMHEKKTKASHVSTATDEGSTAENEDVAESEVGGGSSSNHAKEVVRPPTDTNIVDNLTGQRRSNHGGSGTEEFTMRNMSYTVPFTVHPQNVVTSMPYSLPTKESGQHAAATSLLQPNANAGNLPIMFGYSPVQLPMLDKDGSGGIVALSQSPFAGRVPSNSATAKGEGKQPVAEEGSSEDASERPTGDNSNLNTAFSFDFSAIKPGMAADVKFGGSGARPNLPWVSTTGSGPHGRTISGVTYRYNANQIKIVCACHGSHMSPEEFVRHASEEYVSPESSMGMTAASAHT

[2] = target: T2, BiFC nYFP-BZR1 (Arabidopsis thaliana); assay: BiFC in immature Nicotiana benthamiana leaves
T2 construct: Expressed transiently in Nicotiana benthamiana leaves; also called pDESTnYFP-BZR1
T2 chain: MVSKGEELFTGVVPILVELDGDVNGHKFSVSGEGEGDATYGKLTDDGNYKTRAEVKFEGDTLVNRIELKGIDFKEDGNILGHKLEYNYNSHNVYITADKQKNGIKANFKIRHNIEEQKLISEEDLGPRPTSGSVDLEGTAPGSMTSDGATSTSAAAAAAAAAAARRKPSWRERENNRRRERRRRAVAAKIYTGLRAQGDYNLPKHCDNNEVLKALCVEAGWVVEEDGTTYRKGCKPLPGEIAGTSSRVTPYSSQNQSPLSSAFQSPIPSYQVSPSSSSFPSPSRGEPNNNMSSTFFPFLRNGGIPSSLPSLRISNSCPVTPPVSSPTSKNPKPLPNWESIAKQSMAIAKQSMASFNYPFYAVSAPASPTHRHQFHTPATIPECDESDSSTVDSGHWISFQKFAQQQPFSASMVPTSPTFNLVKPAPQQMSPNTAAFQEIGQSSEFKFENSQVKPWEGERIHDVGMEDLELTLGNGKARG

B1: BiFC cYFP-PPD1-tify (PPD1 with the TIFY domain deleted, aa 154-186) (other)
chain: MDKQKNGIKANFKIRHNIEDGGVQLADHYQQNTPIGDGPVLLPDNHYLSYQSALSKDPNEKRDHMVLLEFVTAAGITLGMDELYKYPYDVPDYAGPRPTSGSVDLEGTAPGSMDVGVSPAKSILAKPLKLLTEEDISQLTREDCRKFLKDKGMRRPSWNKSQAIQQVLSLKALYEPGDDSGAGIFRKILVSQPVNPPRVTTTLIEPSNELEACGRVSYPEDNGACHRMDSPRSAEFSGGSGHFVSEKDGHKTTISPRSPAETSELIMHFAANPIDLPENGIFASSRMISKLISKEKMMELPQKGLEKANSSRDSGMEGQANRKVSLQRYREKRKDRKFSKAKKCPGVASSSLEMFLNCQPRMKAAYSQNLGCTGSPLHSQSPESQTKSPNLSVDLNSEGI
notes: also called cYFP-PPD1Δtify; pDESTcYFP-PPD1Δtify
Does B1 bind [1]?
Result: no binding

Does B1 bind [2]?
Result: no binding
